## Library screen at single concentrations

Measurements from “University of Dundee, Small-Polar-MMV Screening Library” (2021), ChEMBL document CHEMBL3988442.

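Whole-cell growth test on Mycobacterium tuberculosis, read after 4 days in a medium based on cholesterol and the lipid DPPC; the read-out is not stated. Tested at 50 µM. Direction is inferred from retests: higher values go with more growth inhibition. About 69,000 compounds were tested under these conditions; 0.54% (about 370) showed 50% or more at least once.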

Each number is a percent effect as filed.
The record does not define 0% and 100%; most values in the screen are far below 50% and negative numbers occur (in some assays of this library far below -100).
This is an unselected part of the compounds tested.
Two or more numbers in one place are separate tests of the same structure; such repeats can differ widely.

Result for CCCn1ncnc1C(C)NC(=O)CC1CCN(C(C)C)CC1 (stereo not shown) was -11.19% & 3.518%. Cc1nc(CN2CCCC(NCc3ccc4ccccc4c3)C2)no1 (stereo not shown) read -16.02%. For Cn1c(=O)[nH]c(=O)c2cc(C(=O)N3CCCC3C3CCCC3)cnc21 (stereo not shown) the result was -30.81%. For CCOc1ccc(C(=O)N2CCCC(n3nc(C)nc3C)C2)cc1 (stereo not shown) the result was -0.4753%. Result for OC1CCN(c2ccnc3c(F)cc(Br)cc23)CC1 was -19.72%.

With CCC(=O)Nc1ccc2c(ccn2CCOC)c1 the screen gave -1.877%. NCc1cn(-c2ccccc2C(=O)NCc2cccc(Cl)c2)cn1 gave -6.701%. With CC(=O)c1ccccc1-c1nc(CC2CCN(C)CC2)no1 the screen gave -24.96%. With O=C(CCC(=O)N1CCC(OCc2cccnc2)CC1)c1ccccc1 the screen gave -1.277%. For O=C1C(NCc2nnc3n2CCCC3)CCN1c1ccccc1 (stereo not shown) the result was -8.961%.

CNS(=O)(=O)c1cccc(C(C)NCc2ccncc2)c1 (stereo not shown) read 3.134%. Result for COc1nn(C)c2c1CCCN(C(=O)c1ccsc1)C2 was -8.022%. With CCn1ncc(C(=O)NCCc2nc(-c3cccnc3)n[nH]2)c1C the screen gave 18.85%. Cl.Cl.Cn1cnc2c(N3CCOCC3)nc(C3CCNCC3)cc21 gave -9.448%. For CC(NCC(=O)NCC(=O)Nc1ccc(F)cc1)c1cccs1 (stereo not shown) the result was -6.14%.

For O=C(O)[C@@H]1CN(Cc2ccc(-c3cc[nH]n3)s2)C[C@H]1C1CC1 the result was 6.033%. Result for COCC(=O)N1CCC2(COCc3c(C)nc(N(C)C)nc32)C1 (stereo not shown) was -46.43%. With O=C(CCn1ccc2cc(Br)ccc21)NCc1ccc(C(=O)O)cc1 the screen gave -2.73%. O=C1OCCN1C1CCN(Cc2cc3n(n2)CCCNC3)CC1 gave -20.13% & -7.465%. For COc1ccc(C)cc1CN(C)Cc1nc2c(cnn2C)c(=O)[nH]1 the result was 6.763%.

For CCn1nc(C)cc1C(=O)NCc1nc(C)cc(C)n1 the result was 7.294%. CCCN1CCC(c2nc3ccc(-c4cccc(F)c4)cn3n2)CC1.O=C(O)C(F)(F)F read 19.56%. CCc1cc(NC(=O)N2CCC(Oc3cccnc3)C2)n(C)n1 (stereo not shown) read 5.154%. O=C(Nc1ccc(Cl)cn1)C1CCCN(CCc2ccccn2)C1 (stereo not shown) read -15.68%. For CN1CCN(Cc2cn3c(n2)CN(Cc2ccncc2)CC3)CC1 the result was -32.3%.

For CC(C)c1nccn1-c1cncc(C2CCCN2Cc2cccnc2)n1 (stereo not shown) the result was -4.185%. For Cc1[nH]ncc1C(=O)N1CCCC(c2cc(C(F)(F)F)[nH]n2)C1 (stereo not shown) the result was -5.411%. Cc1ccnn1CCNC(=O)c1cnc(N(C)C)nc1 gave 5.783% & -0.5426%. CC(C)C1CN(C(=O)c2ccc(Cl)cn2)CCCN1CC1CC1 (stereo not shown) gave 13.82%. CC(=O)NCC1CCN(C(=O)c2c[nH]c3cc(Cl)ccc23)CC1 read -18.46%.

Result for CN1CCN(CC2(O)CCCN(S(=O)(=O)c3cn[nH]c3)CC2)CC1 (stereo not shown) was -20.11% & -7.561%. Result for Cn1cc(-c2ccc(C3CCCCN3Cc3cccnc3)cn2)cn1 (stereo not shown) was 16.51%. Result for [H][C@@]12C[C@H](C(=O)NCc3cccnc3)[C@@]([H])(CN(Cc3ccc(C)o3)C1)O2 was -5.297%. Result for CC1(C(=O)N2CCOCC2)CN(Cc2c[nH]cn2)CCO1 (stereo not shown) was 6.133%. With O=C(O)C(F)(F)F.[H][C@@]12COC[C@]1(C(=O)NC1CC(F)(F)C1)CN(c1cc(OC)ncn1)C2 the screen gave 0.8146%.

Cc1cc(C)n(CC2CCCN2Cc2c(C)noc2C)n1 (stereo not shown) gave -8.86%. CNC(=O)C1CCC(NC(=O)N(C)Cc2c(C)noc2C)CC1 (stereo not shown) gave 9.68%. With CS(=O)(=O)c1ccc(-c2cnc(C3CCCN3)cn2)cc1.Cl (stereo not shown) the screen gave -9.002% & 10.32%. Result for COCc1cccc(S(=O)(=O)Nc2ncc(C)s2)c1 was -6.126%. CN(Cc1cc(C(C)(C)C)n[nH]1)Cc1c[nH]nc1-c1ccc(F)cc1 read -0.9603%.

Result for CC(C)N(C)Cc1cnc2n1CCN(Cc1cccc(C#N)c1)C2 was -3.475%. Result for O=C(O)C(F)(F)F.[H][C@@]12CCN(CC3CCOCC3)C[C@]1(C(=O)NCc1ccco1)CCO2 was 8.174%. Result for CC(=O)N1CCc2nc(N(C)C)nc(NCCc3ccccc3)c2CC1 was 6.582%. Result for CCSc1cc(C(=O)NCCC(=O)N(C)C)ccn1 was 3.365%. O=C(O)C(F)(F)F.O=C(O)C(F)(F)F.[H][C@@]12CCN(Cc3ccoc3)C[C@@]1([H])[C@H](C(=O)NCc1ccccn1)CCO2 read -2.234%.

For O=C(O)C(F)(F)F.[H][C@@]12CN(Cc3ccco3)CCO[C@]1([H])CN(S(=O)(=O)CC)C2 the result was -42.89%. For Cc1noc(C)c1-c1nc(C2CCCN(CCC(N)=O)C2)ccc1CO (stereo not shown) the result was 5.248% & -10.22%. [H][C@@]12OCCN(C(=O)c3ccc(OC)c(F)c3)[C@@]1([H])CC[C@@H]2OCC1CC1 read -5.909%. O=C(COc1ccc(Cl)cc1)NCc1nncn1C1CC1 gave -9.293%. CCCS(=O)(=O)N(C)C(=O)CCc1ccsc1 gave 15.84% & 6.85%.

Result for CC(C)c1nn(C)c(N(C)C)c1CNCCC(=O)NC1CCCC1 was 1.174%. COc1cc(-n2cccc2)c(Cl)cc1C(N)=O gave -30.8%. Result for Cc1nn(C)c(C)c1-c1cnc(C2CCCN(C)C2)cn1 (stereo not shown) was -4.784%. For CNc1nc2ncc(Cl)cc2cc1C#N the result was -0.7586%. Result for Cc1cc(C(=O)N2CCCC(n3cncn3)C2)on1 (stereo not shown) was -14.85%.

CS(=O)(=O)Cc1ccc(Cl)c(NCc2noc(C3CC3)n2)c1 read 0.1813% & -13.97%. With CC(C)(C)OC(=O)N1CSC[C@@H]1C(=O)NCc1ccc(C#N)cc1 the screen gave 4.846%. Cc1ncc2c(n1)CN(CCOc1ccc3c(c1)CCC(=O)N3)CC2 gave 6.599%. Result for N#Cc1cn(CC(=O)NC2CC2)c2ccc(Br)cc2c1=O was 12.48%.

The first 4 entries again:

| structure | Percent Effect |
|---|---|
| `CCCn1ncnc1C(C)NC(=O)CC1CCN(C(C)C)CC1` (stereo not shown) | -11.19% & 3.518% |
| `Cc1nc(CN2CCCC(NCc3ccc4ccccc4c3)C2)no1` (stereo not shown) | -16.02% |
| `Cn1c(=O)[nH]c(=O)c2cc(C(=O)N3CCCC3C3CCCC3)cnc21` (stereo not shown) | -30.81% |
| `CCOc1ccc(C(=O)N2CCCC(n3nc(C)nc3C)C2)cc1` (stereo not shown) | -0.4753% |